PubChem BioAssay AID743456 – Peter MacCallum Cancer Centre | 2014

Aim: 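Mimic library tested for viability and apoptosis changes under vorinostat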 (primary screen)
System: human HCT116-VR colon cancer cells, a vorinostat-resistant HCT116 line
Reagents: miRNA mimic
Duration: about 3 days from transfection to readout; drug present for the last 24 h
Conditions: vorinostat at 2.5 µM final for 24 h
Detection: 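Cell viability from CellTiter-Fluor signal and caspase activity from luminescence after 24 h vorinostat at 2.5 µM, given as robust z-scores and as ratios to mock-transfected wells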
Scale: viability robust z-score: higher = more viable cells; caspase robust z-score: higher = more caspase activity, more apoptosis
Call rule: 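a mimic counts as active if it lands in a lowered-viability class or a caspase-activation class; wells with too few cells without drug are left out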
Here is an unselected part of 878 deposited reagents. 27 of all reagents (3.1%) count as active. 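27 mimics are marked active, unlike an earlier stated count of 24; the viability threshold is described inconsistently.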 Further read-outs or replicates are left out here. No sequences are given here. Not given: the amount of reagent.

hsa-miR-512-5p | viability robust z-score: -0.86; caspase robust z-score: 2; viability hit class: no change; caspase hit class: no change; activity call: inactive
hsa-miR-556-5p | viability robust z-score: 1.12; caspase robust z-score: 0.57; viability hit class: no change; caspase hit class: no change; activity call: inactive
hsa-miR-597 | viability robust z-score: 0.36; caspase robust z-score: 0.12; viability hit class: no change; caspase hit class: no change; activity call: inactive
hsa-miR-490-3p | viability robust z-score: 1.06; caspase robust z-score: -0.06; viability hit class: no change; caspase hit class: no change; activity call: inactive
hsa-miR-548c-3p | viability robust z-score: 0.99; caspase robust z-score: -0.66; viability hit class: no change; caspase hit class: no change; activity call: inactive
hsa-let-7a* | viability robust z-score: 0.8; caspase robust z-score: 0.01; viability hit class: no change; caspase hit class: no change; activity call: inactive
hsa-miR-651 | viability robust z-score: -0.2; caspase robust z-score: -0.34; viability hit class: no change; caspase hit class: no change; activity call: inactive
hsa-miR-181a | viability robust z-score: 0.42; caspase robust z-score: 1.66; viability hit class: no change; caspase hit class: no change; activity call: inactive
hsa-miR-559 | viability robust z-score: 1.11; caspase robust z-score: -0.74; viability hit class: no change; caspase hit class: no change; activity call: inactive

Next part, starting with the last 2 of the part before.
hsa-miR-181a | viability robust z-score: 0.42; caspase robust z-score: 1.66; viability hit class: no change; caspase hit class: no change; activity call: inactive
hsa-miR-559 | viability robust z-score: 1.11; caspase robust z-score: -0.74; viability hit class: no change; caspase hit class: no change; activity call: inactive
hsa-miR-372 | viability robust z-score: 0.18; caspase robust z-score: 1.29; viability hit class: no change; caspase hit class: no change; activity call: inactive
hsa-miR-191* | viability robust z-score: 1.52; caspase robust z-score: -0.1; viability hit class: no change; caspase hit class: no change; activity call: inactive
hsa-miR-204 | viability robust z-score: 0.16; caspase robust z-score: -0.75; viability hit class: no change; caspase hit class: no change; activity call: inactive
hsa-miR-373 | viability robust z-score: 0.52; caspase robust z-score: 2.04; viability hit class: no change; caspase hit class: no change; activity call: inactive
hsa-miR-27b* | viability robust z-score: 0.3; caspase robust z-score: 0.57; viability hit class: no change; caspase hit class: no change; activity call: inactive
hsa-miR-522 | viability robust z-score: -1.29; caspase robust z-score: 0.86; viability hit class: no change; caspase hit class: no change; activity call: inactive
hsa-miR-411* | viability robust z-score: 0.43; caspase robust z-score: -0.74; viability hit class: no change; caspase hit class: no change; activity call: inactive
hsa-miR-518e* | viability robust z-score: 0.94; caspase robust z-score: 0.74; viability hit class: no change; caspase hit class: no change; activity call: inactive
hsa-miR-1264 | viability robust z-score: 0.93; caspase robust z-score: 0.74; viability hit class: no change; caspase hit class: no change; activity call: inactive
